Sequences of proteins named here, by UniProt entry; tags and fusion partners are left off. A change or cut given only in a name is not applied to a line headed by its entry. A line that says so, or that is headed by a name, gives the form on record, which may keep a tag or linker. Residues count along the entry.
UniProt Q01590: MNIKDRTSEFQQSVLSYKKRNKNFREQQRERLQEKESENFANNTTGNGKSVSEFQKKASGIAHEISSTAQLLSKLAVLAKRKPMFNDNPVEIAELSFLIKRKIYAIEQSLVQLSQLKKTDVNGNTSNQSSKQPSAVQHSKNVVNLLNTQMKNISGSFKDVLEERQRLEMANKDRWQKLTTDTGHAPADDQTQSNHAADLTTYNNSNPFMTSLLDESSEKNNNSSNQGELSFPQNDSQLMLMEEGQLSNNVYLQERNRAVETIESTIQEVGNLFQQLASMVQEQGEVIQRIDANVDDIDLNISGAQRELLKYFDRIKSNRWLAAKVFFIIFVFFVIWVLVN
GST-tagged SNARE-motif of wild-type Sed5p: residues 211-320 of Q01590
UniProt P22214: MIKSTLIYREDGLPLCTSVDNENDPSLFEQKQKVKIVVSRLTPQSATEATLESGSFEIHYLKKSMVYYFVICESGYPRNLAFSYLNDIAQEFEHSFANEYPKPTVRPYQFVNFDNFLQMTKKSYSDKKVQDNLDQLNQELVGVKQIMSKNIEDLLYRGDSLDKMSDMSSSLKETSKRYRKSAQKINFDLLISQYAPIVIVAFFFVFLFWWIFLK

In publication doi:10.1101/765990 (bioRxiv, 2019):

Legend:
Assay in all cases: pull-down
[1] = target: GST-tagged SNARE-motif of wild-type Sed5p (budding yeast) (UniProt Q01590)
[2] = target: GST-sed5p(L272P) SNARE-motif (budding yeast) (UniProt Q01590)
[3] = target: GST-sed5p(L276P) SNARE-motif (budding yeast) (UniProt Q01590)

binding [1]: binds
binding [2]: binds
binding [3]: binds
Substance: purified recombinant Sec22p (from UniProt P22214)

No constants are given. Whether binding was seen depends on the method and setting. A result given as binding can be weak or reduced; the word gives no strength.
